Drawing on paper doi:10.1101/2024.06.05.597643, “Identification and characterization of a human MORC2 DNA binding region that is required for gene silencing” (bioRxiv, 2024), this text covers binding for one substance.

Amino acid sequences for entries named in this document (tags omitted). Residues count along the entry.
UniProt Q9Y6X9, residues 1-603: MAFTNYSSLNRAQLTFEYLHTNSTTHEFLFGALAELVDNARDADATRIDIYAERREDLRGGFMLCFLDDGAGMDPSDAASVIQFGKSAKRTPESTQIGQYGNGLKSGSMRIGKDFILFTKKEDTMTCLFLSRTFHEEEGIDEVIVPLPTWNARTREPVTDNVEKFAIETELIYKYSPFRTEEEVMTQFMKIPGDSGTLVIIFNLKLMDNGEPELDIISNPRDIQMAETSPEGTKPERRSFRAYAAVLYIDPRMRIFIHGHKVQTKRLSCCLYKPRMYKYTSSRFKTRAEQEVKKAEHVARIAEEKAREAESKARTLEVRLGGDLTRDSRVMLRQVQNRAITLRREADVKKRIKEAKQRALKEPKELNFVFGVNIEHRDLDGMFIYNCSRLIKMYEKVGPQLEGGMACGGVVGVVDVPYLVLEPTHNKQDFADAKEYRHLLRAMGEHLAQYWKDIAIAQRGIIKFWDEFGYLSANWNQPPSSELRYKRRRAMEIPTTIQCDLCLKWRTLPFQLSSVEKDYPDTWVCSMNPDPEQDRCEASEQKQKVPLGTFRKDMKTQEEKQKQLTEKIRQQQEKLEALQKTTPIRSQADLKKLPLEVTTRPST

Results are given in words; binding and its absence hold for the method and conditions named.

This experiment concerns the target MORC2 1-603 (human) (UniProt Q9Y6X9). The experiment in a line: SEC-MALS; 1-603 MORC2 1 mg/mL, 50 mM NaCl, 3 mM MgCl2, 20 mM Na-HEPES pH 7.4, 0.5 mM TCEP, 1.5% glycerol, 0.025 mM ZnCl2, without AMP-PNP; Wyatt 030 column; both purified. (In general: In gel filtration, larger molecules generally elute earlier.)

As for “MORC2 1-603 (from UniProt Q9Y6X9 1-603) (domain or fragment)”, the binding entry was “no binding (condition: without AMP-PNP)”.
